Source: patent US20180353564A1 (FEINSTEIN INSTITUTE FOR MEDICAL RESEARCH, published 2018)
These are yes or no findings as the source states them, for the method shown. Some results given as binding are weak or reduced against the parent protein; the word gives no strength.

By UniProt entry, the sequences of proteins in these tests, tags left out. Residues count along the entry.
UniProt O00206, residues 24-631: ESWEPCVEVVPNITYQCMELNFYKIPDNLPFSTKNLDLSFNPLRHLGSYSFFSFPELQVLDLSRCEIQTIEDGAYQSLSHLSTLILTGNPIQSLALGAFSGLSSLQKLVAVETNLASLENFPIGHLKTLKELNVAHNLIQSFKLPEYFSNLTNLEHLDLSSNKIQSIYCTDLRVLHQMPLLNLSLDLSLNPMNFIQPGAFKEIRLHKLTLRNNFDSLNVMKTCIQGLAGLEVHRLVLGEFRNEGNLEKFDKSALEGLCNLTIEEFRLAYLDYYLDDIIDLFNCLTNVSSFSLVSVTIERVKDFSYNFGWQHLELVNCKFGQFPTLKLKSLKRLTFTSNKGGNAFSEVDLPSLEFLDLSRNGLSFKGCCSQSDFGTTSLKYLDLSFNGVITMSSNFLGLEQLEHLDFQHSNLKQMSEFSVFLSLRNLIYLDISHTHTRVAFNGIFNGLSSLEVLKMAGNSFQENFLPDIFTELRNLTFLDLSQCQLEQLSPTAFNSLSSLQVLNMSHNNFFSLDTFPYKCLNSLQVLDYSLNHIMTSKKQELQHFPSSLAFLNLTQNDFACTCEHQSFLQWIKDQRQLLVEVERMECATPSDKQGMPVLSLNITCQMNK

Target: T1, human TLR4 (human, UniProt O00206 24-631, limits assumed)
T1 construct: also called Toll-like receptor 4
Assay: SPR (BIAcore), TLR4 on the chip

- binding: binds
B1: human MD2 (receptor, UniProt Q9Y6Y9 17-160, looked up)
chain: EAQKQYWVCNSSDASISYTYCDKMQYPISINVNPCIELKRSKGLLHIFYIPRRDLKQLYFNLYITVNTMNLPKRKEVICRGSDDDYSFCRALKGETVNTTISFSFKGIKFSKGKYKCVVEAISGSPEEMLFCLEFVILHQPNSN
notes: also called myeloid differentiation factor 2; myeloid differentiation protein 2
